Results are given in words; binding and its absence hold for the method and conditions named. In cells and extracts the contact can be indirect. Some entries that bind do so weakly or less than the wild type.

Protein sequences, listed by entry. Tags and fused reporters are not part of them. Residues count along the entry.
UniProt Q99836: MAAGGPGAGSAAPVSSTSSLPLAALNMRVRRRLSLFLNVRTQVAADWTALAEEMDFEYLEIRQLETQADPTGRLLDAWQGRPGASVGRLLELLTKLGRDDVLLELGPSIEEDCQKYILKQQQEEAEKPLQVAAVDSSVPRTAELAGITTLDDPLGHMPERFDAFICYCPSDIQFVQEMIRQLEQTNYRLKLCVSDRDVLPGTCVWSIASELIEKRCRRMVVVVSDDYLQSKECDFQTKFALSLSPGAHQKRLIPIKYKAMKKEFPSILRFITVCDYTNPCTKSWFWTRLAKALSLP
UniProt O00206, residues 24-839: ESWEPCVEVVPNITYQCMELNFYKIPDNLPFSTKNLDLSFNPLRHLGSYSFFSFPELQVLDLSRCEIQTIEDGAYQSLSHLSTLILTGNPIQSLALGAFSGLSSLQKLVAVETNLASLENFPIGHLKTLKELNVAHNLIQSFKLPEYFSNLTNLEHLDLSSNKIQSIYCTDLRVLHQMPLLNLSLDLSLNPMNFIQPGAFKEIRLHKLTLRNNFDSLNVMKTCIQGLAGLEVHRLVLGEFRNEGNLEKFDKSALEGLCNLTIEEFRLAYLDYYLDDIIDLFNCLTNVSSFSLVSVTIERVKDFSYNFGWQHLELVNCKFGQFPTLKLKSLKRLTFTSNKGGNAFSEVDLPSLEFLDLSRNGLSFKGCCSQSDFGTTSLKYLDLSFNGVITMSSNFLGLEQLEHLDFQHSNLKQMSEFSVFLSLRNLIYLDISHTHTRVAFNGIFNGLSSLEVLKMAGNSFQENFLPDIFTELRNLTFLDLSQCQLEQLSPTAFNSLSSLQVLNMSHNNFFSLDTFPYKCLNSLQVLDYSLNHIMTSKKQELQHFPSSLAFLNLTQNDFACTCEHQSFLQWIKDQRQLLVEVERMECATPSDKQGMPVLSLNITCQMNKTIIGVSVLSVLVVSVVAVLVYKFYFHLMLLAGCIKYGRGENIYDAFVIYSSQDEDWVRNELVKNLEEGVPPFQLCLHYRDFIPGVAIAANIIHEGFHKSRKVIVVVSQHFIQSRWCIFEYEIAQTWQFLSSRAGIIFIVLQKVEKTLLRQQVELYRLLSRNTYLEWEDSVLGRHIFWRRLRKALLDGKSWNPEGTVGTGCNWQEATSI

The test deals with MyD88 (human (endogenous in THP1)) (UniProt Q99836). Nature of the test: co-IP.

For “TLR4 (from UniProt O00206 24-839) (receptor)”, the binding result is reported as “binds”.

(Values after doi:10.1101/2025.03.11.642660.)
